According to patent US7468376B2, “Pyrazolopyridine derivates” (Palau Pharma, S.A., priority 2003, dated 2008):

System: TNF-α release induced by LPS in human peripheral blood mononuclear cells
Assay: Test 2: Inhibition of TNF-α release induced by LPS in human peripheral blood mononuclear cells
Assay type: cell-based
Details: test product at 0.1 μM, LPS 400 ng/mL, 19 h, TNF-α in supernatant by ELISA
Procedure: Test 2: Inhibition of TNF-α Release Induced by LPS in Human Peripheral Blood Mononuclear Cells
To obtain the mononuclear cells: heparinized venous blood, obtained from healthy volunteers, is diluted with an equal volume of saline phosphate buffer without calcium or magnesium. Aliquots of 30 mL of the mixture are transferred to 50 mL centrifuge tubes containing 15 mL of Ficoll-Hypaque (1.077 g/mL). The tubes are centrifuged at 1200×g for 20 min at room temperature without braking. Approximately two-thirds of the band of platelets lying above the mononuclear cells is removed with a pipette. The mononuclear cells are carefully transferred to a 50 mL tube, washed twice with saline phosphate buffer, centrifuged at 300×g for 10 min at room temperature and resuspended in RPMI supplemented with 1% inactivated fetal bovine serum at a cell density of 2×10^6 cells/mL.
Inhibition of TNF-α release: 100 μL of mononuclear cells (2×10^6 cells/mL) are incubated on 96-well plates with 50 μL of the test product (final concentration, 0.001-10 μM) and 50 μL LPS (E. coli 055B5, Sigma) at a final concentration of 400 ng/mL for 19 h at 37° C. in an atmosphere with CO2 at 5%. The amount of TNF-α released in the supernatant is quantified using a commercial ELISA kit (Biosource International).

With `NCCn1cc2c(-c3ccc(F)cc3)c(-c3ccncc3)c(-c3ccc(F)cc3)nc2n1` [Example 90] the “% Inhibition at 0.1 μM” value was 86.3%.
